Measured values: PMC10287950
No constants are given. Whether binding was seen depends on the method and setting. Binding seen in cells or lysates may run through a third protein. A yes stands for co-enrichment or nearness to the bait. Other partners may have been found.

The chains behind the UniProt entries cited, without tags or fusion partners.
UniProt Q5JSZ5: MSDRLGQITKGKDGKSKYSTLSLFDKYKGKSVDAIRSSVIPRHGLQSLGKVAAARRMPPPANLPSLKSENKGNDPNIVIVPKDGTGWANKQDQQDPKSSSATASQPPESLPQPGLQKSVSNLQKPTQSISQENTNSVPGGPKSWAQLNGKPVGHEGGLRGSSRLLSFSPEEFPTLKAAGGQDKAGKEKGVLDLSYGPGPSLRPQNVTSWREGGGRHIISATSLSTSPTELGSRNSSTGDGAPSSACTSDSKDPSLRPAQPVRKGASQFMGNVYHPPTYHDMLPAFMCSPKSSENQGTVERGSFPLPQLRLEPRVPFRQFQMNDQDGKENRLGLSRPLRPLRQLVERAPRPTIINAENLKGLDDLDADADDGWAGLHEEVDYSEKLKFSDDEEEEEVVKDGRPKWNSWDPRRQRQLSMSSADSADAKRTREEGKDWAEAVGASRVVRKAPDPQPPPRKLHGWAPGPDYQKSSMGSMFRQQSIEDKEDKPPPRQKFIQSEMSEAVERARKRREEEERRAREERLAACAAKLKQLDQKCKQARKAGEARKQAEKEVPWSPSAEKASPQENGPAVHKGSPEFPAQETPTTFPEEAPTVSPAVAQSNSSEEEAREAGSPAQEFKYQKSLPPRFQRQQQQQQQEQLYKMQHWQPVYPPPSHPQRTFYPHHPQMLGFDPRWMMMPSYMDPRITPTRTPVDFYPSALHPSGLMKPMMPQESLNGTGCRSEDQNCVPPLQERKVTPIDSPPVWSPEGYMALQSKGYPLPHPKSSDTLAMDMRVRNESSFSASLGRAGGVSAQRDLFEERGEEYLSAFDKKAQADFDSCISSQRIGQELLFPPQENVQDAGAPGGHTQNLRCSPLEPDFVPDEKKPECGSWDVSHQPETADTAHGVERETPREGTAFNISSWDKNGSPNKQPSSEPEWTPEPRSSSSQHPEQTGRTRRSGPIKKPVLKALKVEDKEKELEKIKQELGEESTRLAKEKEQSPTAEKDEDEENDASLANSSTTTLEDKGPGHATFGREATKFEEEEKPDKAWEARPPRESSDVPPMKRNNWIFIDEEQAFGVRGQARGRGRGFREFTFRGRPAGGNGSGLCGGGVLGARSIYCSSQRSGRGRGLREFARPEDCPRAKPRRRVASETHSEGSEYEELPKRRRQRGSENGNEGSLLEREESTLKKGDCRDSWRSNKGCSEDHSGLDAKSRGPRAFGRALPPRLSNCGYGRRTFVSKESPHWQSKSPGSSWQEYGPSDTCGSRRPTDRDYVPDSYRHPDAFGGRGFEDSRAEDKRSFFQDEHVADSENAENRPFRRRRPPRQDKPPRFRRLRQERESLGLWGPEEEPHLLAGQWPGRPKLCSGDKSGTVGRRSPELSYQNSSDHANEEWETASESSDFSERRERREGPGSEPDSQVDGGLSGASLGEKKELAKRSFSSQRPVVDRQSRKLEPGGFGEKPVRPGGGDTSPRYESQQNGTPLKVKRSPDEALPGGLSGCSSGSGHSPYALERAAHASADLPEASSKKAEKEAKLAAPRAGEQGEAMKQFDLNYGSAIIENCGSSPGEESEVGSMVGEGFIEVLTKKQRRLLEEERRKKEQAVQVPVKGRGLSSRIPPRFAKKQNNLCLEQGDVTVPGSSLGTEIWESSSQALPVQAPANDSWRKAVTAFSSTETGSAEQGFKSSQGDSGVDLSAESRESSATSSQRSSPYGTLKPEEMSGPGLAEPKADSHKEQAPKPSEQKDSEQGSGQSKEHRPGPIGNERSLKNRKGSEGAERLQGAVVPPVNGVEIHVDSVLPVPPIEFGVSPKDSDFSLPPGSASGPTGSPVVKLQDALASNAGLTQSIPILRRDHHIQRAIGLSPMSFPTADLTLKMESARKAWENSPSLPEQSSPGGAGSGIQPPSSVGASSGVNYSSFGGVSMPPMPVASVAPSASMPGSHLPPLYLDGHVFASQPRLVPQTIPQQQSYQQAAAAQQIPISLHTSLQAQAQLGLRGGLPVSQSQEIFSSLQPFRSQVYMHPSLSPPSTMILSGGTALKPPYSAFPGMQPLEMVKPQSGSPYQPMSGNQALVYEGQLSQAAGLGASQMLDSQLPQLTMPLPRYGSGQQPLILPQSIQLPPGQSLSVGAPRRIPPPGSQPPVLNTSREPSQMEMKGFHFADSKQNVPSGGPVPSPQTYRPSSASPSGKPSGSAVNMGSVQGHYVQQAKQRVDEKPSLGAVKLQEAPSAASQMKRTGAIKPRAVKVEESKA
UniProt P51114: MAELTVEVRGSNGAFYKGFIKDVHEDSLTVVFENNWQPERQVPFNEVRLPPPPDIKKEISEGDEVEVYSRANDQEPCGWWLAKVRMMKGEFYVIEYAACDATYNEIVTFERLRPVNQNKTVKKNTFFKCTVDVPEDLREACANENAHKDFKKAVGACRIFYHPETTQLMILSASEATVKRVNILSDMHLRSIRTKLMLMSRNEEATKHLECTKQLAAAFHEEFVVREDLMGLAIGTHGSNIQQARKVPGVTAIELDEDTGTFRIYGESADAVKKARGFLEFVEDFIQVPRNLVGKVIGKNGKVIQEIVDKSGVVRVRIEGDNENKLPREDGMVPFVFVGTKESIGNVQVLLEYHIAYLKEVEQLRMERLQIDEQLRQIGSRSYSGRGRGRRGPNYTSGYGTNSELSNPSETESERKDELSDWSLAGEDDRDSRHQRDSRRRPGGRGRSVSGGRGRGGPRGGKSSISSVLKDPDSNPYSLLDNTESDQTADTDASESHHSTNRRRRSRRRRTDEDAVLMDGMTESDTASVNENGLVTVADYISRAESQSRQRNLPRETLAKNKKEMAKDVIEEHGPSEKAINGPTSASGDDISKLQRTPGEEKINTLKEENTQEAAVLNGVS
UniProt P78344: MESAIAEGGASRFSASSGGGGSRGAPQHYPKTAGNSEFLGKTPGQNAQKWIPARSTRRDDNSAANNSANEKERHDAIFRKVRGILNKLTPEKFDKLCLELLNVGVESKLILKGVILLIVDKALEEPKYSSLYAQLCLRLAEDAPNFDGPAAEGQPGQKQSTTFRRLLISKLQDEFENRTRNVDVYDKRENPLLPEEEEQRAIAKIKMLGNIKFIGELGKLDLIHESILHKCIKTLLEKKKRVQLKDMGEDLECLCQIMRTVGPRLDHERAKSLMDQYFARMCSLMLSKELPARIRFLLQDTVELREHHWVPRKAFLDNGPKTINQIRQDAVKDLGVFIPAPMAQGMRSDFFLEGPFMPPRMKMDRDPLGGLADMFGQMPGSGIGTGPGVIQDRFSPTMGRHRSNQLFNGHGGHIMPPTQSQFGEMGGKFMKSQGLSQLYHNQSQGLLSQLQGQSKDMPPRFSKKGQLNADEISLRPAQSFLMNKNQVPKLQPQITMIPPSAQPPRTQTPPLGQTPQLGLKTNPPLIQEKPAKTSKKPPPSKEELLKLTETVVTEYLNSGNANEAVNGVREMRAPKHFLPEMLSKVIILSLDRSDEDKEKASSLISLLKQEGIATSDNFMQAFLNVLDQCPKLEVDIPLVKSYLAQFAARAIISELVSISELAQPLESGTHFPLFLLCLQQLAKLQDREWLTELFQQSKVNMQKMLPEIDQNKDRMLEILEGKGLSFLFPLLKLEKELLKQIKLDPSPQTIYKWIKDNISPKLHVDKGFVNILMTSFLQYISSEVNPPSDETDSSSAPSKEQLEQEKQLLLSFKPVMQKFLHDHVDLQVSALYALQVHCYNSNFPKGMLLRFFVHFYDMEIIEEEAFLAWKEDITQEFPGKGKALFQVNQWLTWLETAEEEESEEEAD

Target: Proline-Rich Coiled-coil 2B (PRRC2B), endogenous (human (endogenous in HEK293T)) (UniProt Q5JSZ5)
Assay: affinity purification with mass spectrometry; IP of endogenous PRRC2B from HEK293T lysate with rabbit anti-PRRC2B antibody and protein A Dynabeads, without RNase T1; LC-MS, SAINT probability against pre-immune IgG IPs; lysis buffer 50 mM HEPES pH 7.5, 150 mM KCl, 2 mM EDTA, 0.1% NP-40

Row | Substance | binding
1 | 3' UTR-binding protein FXR1 (from UniProt P51114 1-621) | binds
2 | eukaryotic translation initiation factor 4G2 (eIF4G2) (from UniProt P78344 1-907) | binds
